The list shows a part of the results.

By UniProt entry, the sequences of proteins in these tests, tags left out. Where a name states a change or a piece, a line headed by the entry shows the natural chain unless it says otherwise.
UniProt Q8IW92: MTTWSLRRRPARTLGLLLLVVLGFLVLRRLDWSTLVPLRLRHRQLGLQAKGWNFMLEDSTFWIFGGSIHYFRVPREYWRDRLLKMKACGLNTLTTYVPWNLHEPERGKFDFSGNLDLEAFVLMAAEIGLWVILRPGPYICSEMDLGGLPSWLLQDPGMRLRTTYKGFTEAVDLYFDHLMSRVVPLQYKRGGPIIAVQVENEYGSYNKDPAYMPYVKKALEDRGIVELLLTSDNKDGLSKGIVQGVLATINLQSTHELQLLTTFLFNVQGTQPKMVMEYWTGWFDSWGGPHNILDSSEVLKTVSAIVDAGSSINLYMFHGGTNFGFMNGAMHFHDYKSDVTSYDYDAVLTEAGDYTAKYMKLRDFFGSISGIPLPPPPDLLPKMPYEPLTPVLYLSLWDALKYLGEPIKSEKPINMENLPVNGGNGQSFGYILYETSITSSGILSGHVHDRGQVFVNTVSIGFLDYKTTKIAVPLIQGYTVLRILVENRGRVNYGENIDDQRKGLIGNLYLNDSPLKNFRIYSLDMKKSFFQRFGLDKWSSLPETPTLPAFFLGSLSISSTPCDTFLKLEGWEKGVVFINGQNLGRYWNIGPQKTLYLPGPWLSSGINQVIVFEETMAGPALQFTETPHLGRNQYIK
UniProt Q9NQX3: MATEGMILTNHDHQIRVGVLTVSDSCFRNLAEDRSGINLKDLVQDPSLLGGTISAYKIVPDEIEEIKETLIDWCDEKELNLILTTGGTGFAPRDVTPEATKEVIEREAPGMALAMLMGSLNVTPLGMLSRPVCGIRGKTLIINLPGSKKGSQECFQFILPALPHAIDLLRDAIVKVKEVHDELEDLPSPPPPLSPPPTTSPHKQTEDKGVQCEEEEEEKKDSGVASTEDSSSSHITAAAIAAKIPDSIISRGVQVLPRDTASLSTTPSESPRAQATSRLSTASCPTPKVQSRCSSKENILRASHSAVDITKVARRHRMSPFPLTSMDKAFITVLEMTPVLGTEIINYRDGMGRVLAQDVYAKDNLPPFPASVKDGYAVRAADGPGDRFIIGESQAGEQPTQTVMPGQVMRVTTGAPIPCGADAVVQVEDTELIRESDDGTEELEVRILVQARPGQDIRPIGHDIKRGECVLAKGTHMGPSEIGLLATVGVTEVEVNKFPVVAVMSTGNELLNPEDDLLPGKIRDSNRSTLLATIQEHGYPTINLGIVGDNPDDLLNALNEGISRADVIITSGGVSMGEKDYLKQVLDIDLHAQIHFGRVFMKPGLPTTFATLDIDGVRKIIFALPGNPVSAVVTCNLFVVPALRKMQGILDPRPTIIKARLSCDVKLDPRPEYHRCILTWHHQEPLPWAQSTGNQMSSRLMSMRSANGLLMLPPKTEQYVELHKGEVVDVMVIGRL
UniProt Q96EK6: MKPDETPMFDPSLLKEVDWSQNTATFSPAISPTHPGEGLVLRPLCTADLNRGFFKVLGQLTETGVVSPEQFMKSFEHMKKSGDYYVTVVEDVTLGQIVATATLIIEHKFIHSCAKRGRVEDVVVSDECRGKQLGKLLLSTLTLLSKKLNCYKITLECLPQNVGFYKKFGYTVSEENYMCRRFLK
UniProt P36959: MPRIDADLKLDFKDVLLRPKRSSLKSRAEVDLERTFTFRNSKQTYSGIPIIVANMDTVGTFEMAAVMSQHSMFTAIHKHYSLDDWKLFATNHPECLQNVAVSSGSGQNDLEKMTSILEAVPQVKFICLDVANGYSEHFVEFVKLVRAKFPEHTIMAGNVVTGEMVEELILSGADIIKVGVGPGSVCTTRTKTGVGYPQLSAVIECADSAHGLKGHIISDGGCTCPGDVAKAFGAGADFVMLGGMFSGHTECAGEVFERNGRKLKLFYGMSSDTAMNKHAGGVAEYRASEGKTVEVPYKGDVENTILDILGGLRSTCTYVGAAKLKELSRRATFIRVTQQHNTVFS
UniProt O60547: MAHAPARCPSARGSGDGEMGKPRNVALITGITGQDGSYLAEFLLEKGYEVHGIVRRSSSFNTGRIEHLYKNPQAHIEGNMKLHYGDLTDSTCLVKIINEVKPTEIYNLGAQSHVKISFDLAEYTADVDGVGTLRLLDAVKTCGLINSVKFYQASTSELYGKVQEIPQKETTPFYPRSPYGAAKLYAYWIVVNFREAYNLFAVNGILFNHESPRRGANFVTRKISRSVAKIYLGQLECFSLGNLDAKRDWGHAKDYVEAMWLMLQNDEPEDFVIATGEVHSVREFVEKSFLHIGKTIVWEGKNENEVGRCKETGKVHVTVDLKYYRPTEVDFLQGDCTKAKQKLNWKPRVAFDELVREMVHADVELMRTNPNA
UniProt Q8TBA6: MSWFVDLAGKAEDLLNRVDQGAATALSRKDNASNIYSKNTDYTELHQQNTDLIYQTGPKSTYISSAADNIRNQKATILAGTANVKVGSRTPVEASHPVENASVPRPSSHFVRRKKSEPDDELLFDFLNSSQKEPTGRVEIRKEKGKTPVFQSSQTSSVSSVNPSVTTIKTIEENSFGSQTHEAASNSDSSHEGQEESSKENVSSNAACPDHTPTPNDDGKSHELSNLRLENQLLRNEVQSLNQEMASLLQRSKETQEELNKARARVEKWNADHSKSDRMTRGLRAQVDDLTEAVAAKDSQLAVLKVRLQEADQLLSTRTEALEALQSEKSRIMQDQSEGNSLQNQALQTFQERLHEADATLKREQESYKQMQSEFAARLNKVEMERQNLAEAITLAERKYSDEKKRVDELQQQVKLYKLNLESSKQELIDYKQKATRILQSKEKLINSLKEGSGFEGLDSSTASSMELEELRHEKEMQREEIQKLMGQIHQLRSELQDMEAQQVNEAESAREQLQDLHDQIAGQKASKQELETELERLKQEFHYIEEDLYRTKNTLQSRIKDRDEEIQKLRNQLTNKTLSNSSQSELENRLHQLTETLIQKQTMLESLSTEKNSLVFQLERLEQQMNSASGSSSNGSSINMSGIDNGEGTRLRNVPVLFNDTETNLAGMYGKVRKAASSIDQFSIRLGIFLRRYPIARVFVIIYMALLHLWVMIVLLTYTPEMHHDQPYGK
UniProt Q4V328: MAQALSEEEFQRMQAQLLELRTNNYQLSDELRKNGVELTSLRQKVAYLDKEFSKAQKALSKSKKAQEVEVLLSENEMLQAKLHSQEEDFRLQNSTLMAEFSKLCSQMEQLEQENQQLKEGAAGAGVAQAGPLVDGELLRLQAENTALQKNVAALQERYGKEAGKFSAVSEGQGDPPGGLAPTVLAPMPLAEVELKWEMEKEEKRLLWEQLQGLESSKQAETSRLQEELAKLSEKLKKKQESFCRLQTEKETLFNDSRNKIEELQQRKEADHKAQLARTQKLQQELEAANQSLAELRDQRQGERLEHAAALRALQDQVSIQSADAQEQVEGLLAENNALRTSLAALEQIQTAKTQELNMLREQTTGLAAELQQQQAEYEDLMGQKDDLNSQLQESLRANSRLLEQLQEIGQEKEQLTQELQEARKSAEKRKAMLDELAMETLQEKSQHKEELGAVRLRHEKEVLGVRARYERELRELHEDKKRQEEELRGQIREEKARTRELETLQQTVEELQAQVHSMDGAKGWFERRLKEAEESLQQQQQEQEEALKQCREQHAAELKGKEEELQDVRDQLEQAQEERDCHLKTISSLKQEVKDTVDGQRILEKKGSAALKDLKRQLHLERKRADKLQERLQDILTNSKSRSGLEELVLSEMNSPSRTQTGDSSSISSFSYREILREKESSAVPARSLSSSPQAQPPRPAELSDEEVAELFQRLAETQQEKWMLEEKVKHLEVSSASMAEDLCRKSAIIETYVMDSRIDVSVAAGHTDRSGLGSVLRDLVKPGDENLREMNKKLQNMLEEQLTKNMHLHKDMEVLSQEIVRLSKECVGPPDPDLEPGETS
UniProt P00505: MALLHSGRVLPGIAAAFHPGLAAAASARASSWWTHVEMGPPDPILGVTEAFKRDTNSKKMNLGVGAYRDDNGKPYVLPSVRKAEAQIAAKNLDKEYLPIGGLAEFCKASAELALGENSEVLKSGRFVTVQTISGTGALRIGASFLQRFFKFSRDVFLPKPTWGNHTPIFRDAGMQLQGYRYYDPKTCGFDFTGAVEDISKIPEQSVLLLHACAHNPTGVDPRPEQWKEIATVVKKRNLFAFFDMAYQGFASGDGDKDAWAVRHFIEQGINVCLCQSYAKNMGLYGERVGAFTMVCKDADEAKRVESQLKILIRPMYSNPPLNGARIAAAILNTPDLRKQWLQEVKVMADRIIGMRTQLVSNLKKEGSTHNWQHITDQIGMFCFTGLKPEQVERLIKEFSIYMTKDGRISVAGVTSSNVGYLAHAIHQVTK
UniProt Q7Z5G4, whole entry, looked up: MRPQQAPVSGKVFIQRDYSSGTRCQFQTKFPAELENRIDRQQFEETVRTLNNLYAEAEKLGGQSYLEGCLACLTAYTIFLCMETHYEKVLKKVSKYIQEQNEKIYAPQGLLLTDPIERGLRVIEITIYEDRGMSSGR
UniProt Q9HC38: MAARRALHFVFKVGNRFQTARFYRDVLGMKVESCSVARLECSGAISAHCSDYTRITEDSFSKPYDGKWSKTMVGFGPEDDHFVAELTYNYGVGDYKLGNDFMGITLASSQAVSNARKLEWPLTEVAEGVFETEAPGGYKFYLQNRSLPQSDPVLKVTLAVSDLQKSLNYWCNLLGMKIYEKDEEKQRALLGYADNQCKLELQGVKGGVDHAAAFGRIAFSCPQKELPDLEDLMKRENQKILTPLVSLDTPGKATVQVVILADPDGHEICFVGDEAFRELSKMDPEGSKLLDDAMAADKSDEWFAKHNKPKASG
UniProt Q92896: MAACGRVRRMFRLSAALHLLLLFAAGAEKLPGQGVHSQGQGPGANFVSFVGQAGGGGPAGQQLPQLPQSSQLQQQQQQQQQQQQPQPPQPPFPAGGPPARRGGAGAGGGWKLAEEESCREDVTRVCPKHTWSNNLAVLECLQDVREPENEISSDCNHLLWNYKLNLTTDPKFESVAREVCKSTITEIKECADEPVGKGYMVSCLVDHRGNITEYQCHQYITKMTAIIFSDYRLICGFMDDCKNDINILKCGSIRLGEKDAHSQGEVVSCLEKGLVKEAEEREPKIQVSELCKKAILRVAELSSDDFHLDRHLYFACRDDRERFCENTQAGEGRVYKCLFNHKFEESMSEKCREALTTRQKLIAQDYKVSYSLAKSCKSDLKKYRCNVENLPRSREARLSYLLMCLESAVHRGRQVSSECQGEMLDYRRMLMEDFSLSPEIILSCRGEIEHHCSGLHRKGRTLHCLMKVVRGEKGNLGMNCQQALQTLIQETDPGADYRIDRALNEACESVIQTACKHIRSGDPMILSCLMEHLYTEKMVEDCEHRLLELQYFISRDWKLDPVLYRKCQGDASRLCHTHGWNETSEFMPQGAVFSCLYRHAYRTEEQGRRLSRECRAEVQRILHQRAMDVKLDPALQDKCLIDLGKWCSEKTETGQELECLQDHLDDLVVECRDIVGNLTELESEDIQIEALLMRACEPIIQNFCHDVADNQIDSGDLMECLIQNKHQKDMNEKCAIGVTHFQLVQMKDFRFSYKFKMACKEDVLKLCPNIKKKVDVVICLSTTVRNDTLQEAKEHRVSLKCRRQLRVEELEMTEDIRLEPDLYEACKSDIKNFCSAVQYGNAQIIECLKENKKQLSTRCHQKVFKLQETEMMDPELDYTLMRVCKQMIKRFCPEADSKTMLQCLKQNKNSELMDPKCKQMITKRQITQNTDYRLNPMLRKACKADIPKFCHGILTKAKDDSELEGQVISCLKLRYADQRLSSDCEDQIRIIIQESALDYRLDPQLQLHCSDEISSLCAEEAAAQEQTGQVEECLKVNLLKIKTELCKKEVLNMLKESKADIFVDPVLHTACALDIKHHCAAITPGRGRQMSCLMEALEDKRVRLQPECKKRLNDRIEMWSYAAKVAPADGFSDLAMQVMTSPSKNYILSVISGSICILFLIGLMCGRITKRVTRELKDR
UniProt Q86WP2: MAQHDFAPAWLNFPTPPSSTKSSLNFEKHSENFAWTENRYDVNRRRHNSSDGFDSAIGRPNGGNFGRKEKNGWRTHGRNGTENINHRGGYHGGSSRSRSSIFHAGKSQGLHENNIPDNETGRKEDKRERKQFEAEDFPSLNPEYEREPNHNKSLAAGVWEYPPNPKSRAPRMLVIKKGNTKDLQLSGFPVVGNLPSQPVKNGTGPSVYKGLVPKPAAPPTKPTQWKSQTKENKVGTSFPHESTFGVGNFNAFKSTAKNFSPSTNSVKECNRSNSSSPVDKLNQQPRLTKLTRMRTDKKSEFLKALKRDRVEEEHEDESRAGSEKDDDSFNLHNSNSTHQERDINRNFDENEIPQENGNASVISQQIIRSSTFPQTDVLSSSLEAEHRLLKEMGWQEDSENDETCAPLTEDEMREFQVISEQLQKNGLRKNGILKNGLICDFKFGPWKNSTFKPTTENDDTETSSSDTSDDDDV
UniProt O75496: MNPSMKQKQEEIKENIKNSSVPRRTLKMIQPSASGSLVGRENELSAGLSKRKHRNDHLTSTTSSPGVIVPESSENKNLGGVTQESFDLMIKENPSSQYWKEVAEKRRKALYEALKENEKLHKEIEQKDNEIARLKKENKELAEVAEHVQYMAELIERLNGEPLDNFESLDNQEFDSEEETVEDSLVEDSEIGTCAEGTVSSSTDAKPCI

The values below come from the supplement of paper PMC10849652.

Compound in the first experiment: CNC(=O)C1=CC=CC=C1NC2=NC(=NC=C2Cl)NC3=C(C=C(C=C3)N4CCOCC4)OC
In words: log2 fold change, soluble protein after heating vs DMSO (PISA); higher = thermal stabilisation; K562 cells, 10 uM, 30 min; active = over 0.2 and 3.5 SD of the protein, either way, in both replicates (recomputed). The gist of the method:
(§1)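 Quantification of soluble protein used TMTpro 16plex LC-MS/MS, with channel sums equalised. Samples were the supernatant after 21,000xg for 90 min of pooled aliquots from K562 cells (2×10^6 cells/mL) treated with 10 μM compound for 30 min, heated for 3 min over 48°C-58°C, and extracted in PBS with 0.5% NP-40 at 4°C. Values, from duplicates, describe thermal stability against control samples on a log2 fold-change scale.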
Consider GNA13 (UniProt Q14344), for which the log2 fold change was inactive: -0.006.

For the target GLB1L2 (UniProt Q8IW92), the log2 fold change was inactive: 0.082.

Turning to GK (UniProt P32189), the log2 fold change is inactive: -0.012.

Turning to GPHN isoform 2 (UniProt Q9NQX3), the log2 fold change is inactive: -0.006.

Consider GNPNAT1 (UniProt Q96EK6), for which the log2 fold change was inactive: -0.044.

Regarding GMPR (UniProt P36959), the log2 fold change was inactive: -0.012.

Consider GNMT (UniProt Q14749), for which the log2 fold change is inactive: 0.196.

For GMDS (UniProt O60547), the log2 fold change is inactive: -0.055.

Regarding GNPDA2 (UniProt Q8TDQ7), the log2 fold change was inactive: -0.029.

For GPBP1L1 (UniProt Q9HC44), the log2 fold change is inactive: 0.022.

For GM2A (UniProt P17900), the log2 fold change was inactive: 0.09.

In the case of GMPPA (UniProt Q96IJ6), the log2 fold change was inactive: -0.093.

With GOLGA5 (UniProt Q8TBA6), the log2 fold change was inactive: 0.06.

Turning to GRIPAP1 (UniProt Q4V328), the log2 fold change was inactive: 0.114.

On to GRPEL1 (UniProt Q9HAV7), for which the log2 fold change was inactive: 0.019.

GOT2 (UniProt P00505): the log2 fold change was inactive: 0.023.

Take GNA12 (UniProt Q03113): the log2 fold change is inactive: -0.047.

For the target GPR107 (UniProt Q5VW38), the log2 fold change is inactive: -0.001.

GNPDA1 (UniProt P46926): the log2 fold change is inactive: -0.03.

On to GLO1 (UniProt Q04760), for which the log2 fold change was inactive: -0.034.

As for GOSR1 (UniProt O95249), the log2 fold change is inactive: -0.026.

GOLGA7 (UniProt Q7Z5G4): the log2 fold change is inactive: 0.029.

As to GOSR2 isoform 2 (UniProt O14653), the log2 fold change is inactive: -0.08.

Turning to GNB1L (UniProt Q9BYB4), the log2 fold change is inactive: -0.044.

For the target GLOD4 isoform 2 (UniProt Q9HC38), the log2 fold change was inactive: 0.046.

Turning to GPATCH11 (UniProt Q8N954), the log2 fold change was inactive: 0.

In the case of GLG1 isoform 2 (UniProt Q92896), the log2 fold change was inactive: -0.023.

Regarding GPATCH1 (UniProt Q9BRR8), the log2 fold change was inactive: -0.239.

With GINS3 (UniProt Q9BRX5), the log2 fold change was inactive: -0.065.

For the target GNE isoform 2 (UniProt Q9Y223), the log2 fold change was inactive: -0.012.

For the target GPRIN1 (UniProt Q7Z2K8), the log2 fold change was inactive: -0.037.

On to GOT1 (UniProt P17174), for which the log2 fold change was inactive: -0.036.

On to GPBP1 isoform 2 (UniProt Q86WP2), for which the log2 fold change is inactive: 0.032.

As for GPS1 isoform 7 (UniProt Q13098), the log2 fold change was inactive: 0.007.

For GMNN (UniProt O75496), the log2 fold change was inactive: -0.028.

As to GPD2 (UniProt P43304), the log2 fold change was inactive: 0.

Take GPN2 (UniProt Q9H9Y4): the log2 fold change is inactive: -0.005.

Turning to GPAT3 (UniProt Q53EU6), the log2 fold change is inactive: 0.051.

Compound in the next experiment: CNC(=O)c1ccc(Nc2ncc(C(F)(F)F)c(NCc3nccnc3N(C)S(C)(=O)=O)n2)cc1 [defactinib]
Described as above. The gist of the method: as §1
With GNA13 (UniProt Q14344), the log2 fold change was inactive: -0.035.

As for GLB1L2 (UniProt Q8IW92), the log2 fold change was inactive: -0.05.

Consider GK (UniProt P32189), for which the log2 fold change was inactive: -0.003.

As to GPHN isoform 2 (UniProt Q9NQX3), the log2 fold change was inactive: -0.021.

For GNPNAT1 (UniProt Q96EK6), the log2 fold change was inactive: -0.05.

With GMPR (UniProt P36959), the log2 fold change is inactive: -0.046.

Take GNMT (UniProt Q14749): the log2 fold change is inactive: -0.028.

For GMDS (UniProt O60547), the log2 fold change was inactive: -0.018.

For the target GNPDA2 (UniProt Q8TDQ7), the log2 fold change is inactive: 0.01.

In the case of GPBP1L1 (UniProt Q9HC44), the log2 fold change was inactive: -0.028.

GM2A (UniProt P17900): the log2 fold change was inactive: 0.014.

For the target GMPPA (UniProt Q96IJ6), the log2 fold change was inactive: -0.014.

Consider GOLGA5 (UniProt Q8TBA6), for which the log2 fold change is inactive: -0.094.

In the case of GRIPAP1 (UniProt Q4V328), the log2 fold change was inactive: -0.013.

Turning to GRPEL1 (UniProt Q9HAV7), the log2 fold change is inactive: -0.01.

As to GOT2 (UniProt P00505), the log2 fold change is inactive: -0.007.

Take GNA12 (UniProt Q03113): the log2 fold change is inactive: 0.003.

For GPR107 (UniProt Q5VW38), the log2 fold change was inactive: -0.023.

Consider GNPDA1 (UniProt P46926), for which the log2 fold change is inactive: -0.001.

Regarding GLO1 (UniProt Q04760), the log2 fold change was inactive: 0.005.

Take GOSR1 (UniProt O95249): the log2 fold change was inactive: -0.038.

As for GOLGA7 (UniProt Q7Z5G4), the log2 fold change was inactive: -0.013.

Take GOSR2 isoform 2 (UniProt O14653): the log2 fold change was inactive: -0.063.

Regarding GNB1L (UniProt Q9BYB4), the log2 fold change was inactive: -0.013.

As for GLOD4 isoform 2 (UniProt Q9HC38), the log2 fold change is inactive: -0.082.

As for GPATCH11 (UniProt Q8N954), the log2 fold change is inactive: 0.062.

For GLG1 isoform 2 (UniProt Q92896), the log2 fold change was inactive: 0.001.

Turning to GPATCH1 (UniProt Q9BRR8), the log2 fold change was inactive: -0.055.

Take GINS3 (UniProt Q9BRX5): the log2 fold change is inactive: -0.056.

As for GNE isoform 2 (UniProt Q9Y223), the log2 fold change was inactive: 0.027.

For the target GPRIN1 (UniProt Q7Z2K8), the log2 fold change is inactive: -0.029.

GOT1 (UniProt P17174): the log2 fold change is inactive: -0.006.

Take GPBP1 isoform 2 (UniProt Q86WP2): the log2 fold change was inactive: 0.004.

As for GPS1 isoform 7 (UniProt Q13098), the log2 fold change is inactive: -0.008.

As to GMNN (UniProt O75496), the log2 fold change was inactive: -0.001.

For GPD2 (UniProt P43304), the log2 fold change was inactive: 0.

Consider GPN2 (UniProt Q9H9Y4), for which the log2 fold change is inactive: 0.027.

Turning to GPAT3 (UniProt Q53EU6), the log2 fold change is inactive: -0.09.
